Experimental data taken from patent US20130157945A1.
These are yes or no findings as the source states them, for the method shown. Some entries that bind do so weakly or less than the wild type. Tags and fused reporters may be left off the sequences shown.

Sequences of proteins named here, by UniProt entry; tags and fusion partners are left off. Residues count along the entry.
UniProt P19438, residues 30-211: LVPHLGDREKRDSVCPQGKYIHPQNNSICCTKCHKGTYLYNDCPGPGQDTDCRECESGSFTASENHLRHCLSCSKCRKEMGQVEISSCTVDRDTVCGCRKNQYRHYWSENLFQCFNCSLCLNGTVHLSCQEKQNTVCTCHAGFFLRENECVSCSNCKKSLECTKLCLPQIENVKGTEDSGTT
UniProt P20333, residues 23-257: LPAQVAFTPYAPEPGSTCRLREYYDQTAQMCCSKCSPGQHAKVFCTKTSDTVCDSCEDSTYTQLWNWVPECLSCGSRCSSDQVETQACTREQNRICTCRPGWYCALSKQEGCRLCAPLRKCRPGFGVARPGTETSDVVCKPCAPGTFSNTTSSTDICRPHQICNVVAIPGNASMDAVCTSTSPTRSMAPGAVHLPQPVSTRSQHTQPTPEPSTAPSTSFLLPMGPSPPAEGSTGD

Columns and labels:
[1] = target: TNFR1 (as used in the surface plasmon resonance assays) (UniProt P19438); test: surface plasmon resonance (FIG. 28)
[2] = target: TNFR2 (as used in the surface plasmon resonance assays) (UniProt P20333); test: surface plasmon resonance (FIG. 28)

B1: Atsttrin (recombinant, released from GST-Atsttrin by factor Xa) (peptide)
chain: PQASCCEDRVHCCPHGAFCDLVHTRCITPTGTHPLAKKLPAQRTNRAVALSSSASSKENATTDLLTKLPAHTVGDVKCDMEVSCPDGYTCCRLQSGAWPWCEQGPHQVPWMEKAPAHLSLPDPQALKRDVPCDNVSSCPSSDTCCQLTSGEWGCCPIP
[1]
  binding: binds
[2]
  binding: binds
